{
  "source": "patent US11857551B1",
  "about": "“Methods for the prevention and treatment of hearing loss” (Ting Therapeutics LLC, priority 2020, dated 2024)",
  "tested_on": "HEI-OC1 cells",
  "assay": "Caspase-Glo 3/7 assay in cisplatin-treated HEI-OC1 cells",
  "conditions": "Mus musculus, HEI-OC1, read-out: calculated IC50 (percent protection dose response, caspase 3/7)",
  "data": [
    {"smiles": "CSc1ccc2c(c1)N(CCC1CCCCN1C)c1ccccc1S2", "note": "(stereo not shown) [thioridazine]", "values": [
      {"measurement": "IC50", "value": 30.8, "unit": "µM"}
    ]}
  ]
}
